Reference: the supplement of paper PMC10849652
The list shows a part of the results.

The chains behind the UniProt entries cited, without tags or fusion partners. Where a name states a change or a piece, a line headed by the entry shows the natural chain unless it says otherwise.
UniProt Q9UGK8: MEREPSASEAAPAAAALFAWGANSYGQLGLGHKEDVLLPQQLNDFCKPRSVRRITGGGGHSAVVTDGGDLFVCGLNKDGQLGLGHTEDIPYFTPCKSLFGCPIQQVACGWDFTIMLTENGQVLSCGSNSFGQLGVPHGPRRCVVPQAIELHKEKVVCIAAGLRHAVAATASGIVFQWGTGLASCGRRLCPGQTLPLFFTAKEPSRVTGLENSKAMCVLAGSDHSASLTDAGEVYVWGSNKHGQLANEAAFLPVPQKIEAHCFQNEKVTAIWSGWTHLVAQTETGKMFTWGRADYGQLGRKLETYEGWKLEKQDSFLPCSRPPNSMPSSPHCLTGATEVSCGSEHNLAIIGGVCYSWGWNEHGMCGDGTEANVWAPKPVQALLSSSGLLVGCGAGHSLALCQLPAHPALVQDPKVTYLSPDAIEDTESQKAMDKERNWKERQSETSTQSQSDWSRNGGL
UniProt P50454: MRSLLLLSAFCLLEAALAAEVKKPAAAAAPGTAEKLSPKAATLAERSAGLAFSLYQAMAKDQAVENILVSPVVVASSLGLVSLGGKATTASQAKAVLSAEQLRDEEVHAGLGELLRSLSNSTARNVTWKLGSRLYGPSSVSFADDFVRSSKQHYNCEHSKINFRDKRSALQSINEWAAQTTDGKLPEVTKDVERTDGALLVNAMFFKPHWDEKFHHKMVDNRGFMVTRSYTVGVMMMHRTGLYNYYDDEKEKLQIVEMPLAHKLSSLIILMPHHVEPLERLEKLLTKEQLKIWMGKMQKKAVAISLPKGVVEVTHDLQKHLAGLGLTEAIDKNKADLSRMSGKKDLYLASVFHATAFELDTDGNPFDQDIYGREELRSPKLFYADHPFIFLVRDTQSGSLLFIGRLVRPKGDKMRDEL
UniProt P34897: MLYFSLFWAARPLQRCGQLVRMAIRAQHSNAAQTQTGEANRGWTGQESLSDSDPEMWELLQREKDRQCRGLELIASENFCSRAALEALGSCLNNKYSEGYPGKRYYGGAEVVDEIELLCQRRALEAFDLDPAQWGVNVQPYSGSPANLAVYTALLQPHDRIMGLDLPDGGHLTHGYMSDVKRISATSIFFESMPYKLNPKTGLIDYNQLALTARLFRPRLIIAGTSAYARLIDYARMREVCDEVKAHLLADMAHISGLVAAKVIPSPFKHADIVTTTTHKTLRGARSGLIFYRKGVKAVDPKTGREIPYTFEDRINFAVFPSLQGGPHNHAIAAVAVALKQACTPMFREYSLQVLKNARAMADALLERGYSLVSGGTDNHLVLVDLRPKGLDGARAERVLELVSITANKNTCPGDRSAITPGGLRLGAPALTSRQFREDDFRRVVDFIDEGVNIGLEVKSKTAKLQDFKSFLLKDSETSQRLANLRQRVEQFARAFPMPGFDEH
UniProt Q15637: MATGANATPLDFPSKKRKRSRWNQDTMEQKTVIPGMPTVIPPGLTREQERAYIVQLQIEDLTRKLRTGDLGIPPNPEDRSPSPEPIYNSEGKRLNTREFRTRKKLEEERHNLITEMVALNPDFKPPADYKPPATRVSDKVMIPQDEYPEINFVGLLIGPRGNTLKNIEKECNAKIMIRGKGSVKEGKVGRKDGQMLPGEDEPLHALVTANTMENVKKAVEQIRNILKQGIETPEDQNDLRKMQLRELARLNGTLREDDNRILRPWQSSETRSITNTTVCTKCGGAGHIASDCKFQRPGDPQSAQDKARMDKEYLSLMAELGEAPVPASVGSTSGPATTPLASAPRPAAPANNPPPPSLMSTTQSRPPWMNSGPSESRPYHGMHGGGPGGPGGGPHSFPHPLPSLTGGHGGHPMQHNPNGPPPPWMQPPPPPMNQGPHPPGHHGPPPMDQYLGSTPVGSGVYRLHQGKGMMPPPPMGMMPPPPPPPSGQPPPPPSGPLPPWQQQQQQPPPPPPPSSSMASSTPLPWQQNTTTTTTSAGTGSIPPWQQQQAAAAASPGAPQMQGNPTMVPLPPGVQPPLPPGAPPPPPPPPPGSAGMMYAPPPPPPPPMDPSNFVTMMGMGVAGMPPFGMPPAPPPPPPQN
UniProt Q9NR46: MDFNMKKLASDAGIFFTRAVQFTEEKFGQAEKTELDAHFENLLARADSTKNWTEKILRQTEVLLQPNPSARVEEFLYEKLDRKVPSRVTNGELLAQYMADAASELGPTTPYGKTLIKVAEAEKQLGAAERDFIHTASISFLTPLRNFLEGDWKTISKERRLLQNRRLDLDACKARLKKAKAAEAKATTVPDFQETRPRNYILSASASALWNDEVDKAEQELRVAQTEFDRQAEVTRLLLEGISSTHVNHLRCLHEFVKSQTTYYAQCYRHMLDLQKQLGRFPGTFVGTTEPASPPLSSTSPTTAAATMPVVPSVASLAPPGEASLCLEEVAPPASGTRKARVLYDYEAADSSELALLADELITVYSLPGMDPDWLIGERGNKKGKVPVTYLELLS
UniProt Q9Y3B4: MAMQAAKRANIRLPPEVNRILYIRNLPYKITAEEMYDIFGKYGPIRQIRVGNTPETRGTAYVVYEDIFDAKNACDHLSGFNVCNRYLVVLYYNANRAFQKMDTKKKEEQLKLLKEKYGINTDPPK
UniProt Q96EQ0: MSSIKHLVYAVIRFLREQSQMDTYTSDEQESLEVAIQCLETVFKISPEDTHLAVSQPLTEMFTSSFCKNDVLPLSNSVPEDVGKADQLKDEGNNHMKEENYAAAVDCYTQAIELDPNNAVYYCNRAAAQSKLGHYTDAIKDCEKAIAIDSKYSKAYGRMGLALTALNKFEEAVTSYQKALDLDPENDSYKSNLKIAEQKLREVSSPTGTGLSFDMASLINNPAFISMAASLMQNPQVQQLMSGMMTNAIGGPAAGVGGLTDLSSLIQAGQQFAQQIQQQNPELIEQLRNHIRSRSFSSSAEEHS
UniProt Q13435: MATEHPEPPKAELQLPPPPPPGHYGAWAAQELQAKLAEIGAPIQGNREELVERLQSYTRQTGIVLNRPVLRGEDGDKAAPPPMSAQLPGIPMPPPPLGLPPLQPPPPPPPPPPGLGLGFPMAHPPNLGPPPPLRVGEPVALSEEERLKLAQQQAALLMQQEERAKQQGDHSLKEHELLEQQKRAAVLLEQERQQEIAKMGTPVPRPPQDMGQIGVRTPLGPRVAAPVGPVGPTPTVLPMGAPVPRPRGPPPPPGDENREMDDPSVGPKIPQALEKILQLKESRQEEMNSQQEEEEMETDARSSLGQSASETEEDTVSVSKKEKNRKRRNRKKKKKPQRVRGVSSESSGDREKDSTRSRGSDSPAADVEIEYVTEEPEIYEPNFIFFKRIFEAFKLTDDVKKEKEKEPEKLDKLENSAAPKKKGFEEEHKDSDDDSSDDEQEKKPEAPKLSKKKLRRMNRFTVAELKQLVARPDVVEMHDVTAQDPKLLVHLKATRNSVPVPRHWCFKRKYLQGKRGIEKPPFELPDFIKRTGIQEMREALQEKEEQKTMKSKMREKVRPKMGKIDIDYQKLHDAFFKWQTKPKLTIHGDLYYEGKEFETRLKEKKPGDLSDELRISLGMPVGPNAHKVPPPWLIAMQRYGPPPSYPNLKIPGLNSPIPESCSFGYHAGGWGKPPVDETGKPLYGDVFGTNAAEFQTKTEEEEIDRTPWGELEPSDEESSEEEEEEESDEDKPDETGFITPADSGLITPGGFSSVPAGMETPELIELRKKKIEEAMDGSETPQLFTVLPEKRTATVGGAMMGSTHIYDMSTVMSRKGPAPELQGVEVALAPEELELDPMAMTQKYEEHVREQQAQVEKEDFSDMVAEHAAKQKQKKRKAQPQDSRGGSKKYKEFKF
UniProt P58004: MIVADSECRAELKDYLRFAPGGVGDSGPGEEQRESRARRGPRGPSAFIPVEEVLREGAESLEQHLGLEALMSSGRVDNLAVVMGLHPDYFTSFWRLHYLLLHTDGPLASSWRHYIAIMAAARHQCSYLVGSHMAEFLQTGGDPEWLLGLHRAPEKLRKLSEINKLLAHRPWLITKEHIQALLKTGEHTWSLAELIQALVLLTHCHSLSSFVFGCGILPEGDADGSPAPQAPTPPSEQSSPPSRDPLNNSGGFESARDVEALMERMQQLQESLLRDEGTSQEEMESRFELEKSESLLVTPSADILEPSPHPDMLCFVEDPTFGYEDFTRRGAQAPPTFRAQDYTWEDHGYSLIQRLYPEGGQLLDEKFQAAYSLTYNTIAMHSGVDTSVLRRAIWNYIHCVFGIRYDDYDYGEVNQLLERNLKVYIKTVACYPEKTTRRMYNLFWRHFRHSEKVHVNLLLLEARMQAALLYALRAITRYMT
UniProt Q7L8J4: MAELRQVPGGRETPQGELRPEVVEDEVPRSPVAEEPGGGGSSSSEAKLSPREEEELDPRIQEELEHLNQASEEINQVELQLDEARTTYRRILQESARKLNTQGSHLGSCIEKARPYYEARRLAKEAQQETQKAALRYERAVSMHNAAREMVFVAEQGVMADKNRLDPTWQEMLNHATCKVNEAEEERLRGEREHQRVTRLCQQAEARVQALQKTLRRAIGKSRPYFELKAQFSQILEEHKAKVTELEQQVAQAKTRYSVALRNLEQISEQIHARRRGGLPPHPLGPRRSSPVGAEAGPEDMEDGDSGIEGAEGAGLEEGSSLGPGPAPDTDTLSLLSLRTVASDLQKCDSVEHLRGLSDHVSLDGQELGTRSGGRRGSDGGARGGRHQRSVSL
UniProt Q8NEM2: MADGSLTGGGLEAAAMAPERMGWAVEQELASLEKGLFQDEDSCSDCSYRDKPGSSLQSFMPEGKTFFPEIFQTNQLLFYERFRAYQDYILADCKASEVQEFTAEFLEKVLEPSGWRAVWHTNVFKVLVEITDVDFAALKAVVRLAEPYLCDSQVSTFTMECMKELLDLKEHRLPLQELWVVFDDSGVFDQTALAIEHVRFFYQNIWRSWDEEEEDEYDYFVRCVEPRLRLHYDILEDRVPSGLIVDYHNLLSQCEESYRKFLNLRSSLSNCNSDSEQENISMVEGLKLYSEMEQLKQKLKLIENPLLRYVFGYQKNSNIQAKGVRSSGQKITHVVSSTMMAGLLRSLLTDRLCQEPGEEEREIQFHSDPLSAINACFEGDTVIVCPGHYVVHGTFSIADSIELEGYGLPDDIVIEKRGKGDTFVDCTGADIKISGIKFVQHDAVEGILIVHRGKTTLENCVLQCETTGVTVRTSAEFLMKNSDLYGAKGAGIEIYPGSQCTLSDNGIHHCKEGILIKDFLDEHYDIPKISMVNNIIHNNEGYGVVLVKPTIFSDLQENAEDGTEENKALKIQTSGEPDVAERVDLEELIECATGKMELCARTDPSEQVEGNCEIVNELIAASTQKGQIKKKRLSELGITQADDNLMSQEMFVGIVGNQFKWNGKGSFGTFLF
UniProt Q9NP31, whole entry, looked up: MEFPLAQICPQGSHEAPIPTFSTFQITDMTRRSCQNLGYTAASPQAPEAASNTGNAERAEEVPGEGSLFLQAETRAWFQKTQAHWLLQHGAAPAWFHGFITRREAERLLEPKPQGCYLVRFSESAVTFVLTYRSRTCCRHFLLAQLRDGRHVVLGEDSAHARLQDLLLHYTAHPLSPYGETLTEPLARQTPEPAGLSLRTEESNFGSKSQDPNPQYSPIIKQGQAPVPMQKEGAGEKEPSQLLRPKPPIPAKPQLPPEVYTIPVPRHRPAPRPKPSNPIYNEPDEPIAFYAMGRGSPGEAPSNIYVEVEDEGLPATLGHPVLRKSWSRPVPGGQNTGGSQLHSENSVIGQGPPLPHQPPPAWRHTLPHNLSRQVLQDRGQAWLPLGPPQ
UniProt Q5FBB7: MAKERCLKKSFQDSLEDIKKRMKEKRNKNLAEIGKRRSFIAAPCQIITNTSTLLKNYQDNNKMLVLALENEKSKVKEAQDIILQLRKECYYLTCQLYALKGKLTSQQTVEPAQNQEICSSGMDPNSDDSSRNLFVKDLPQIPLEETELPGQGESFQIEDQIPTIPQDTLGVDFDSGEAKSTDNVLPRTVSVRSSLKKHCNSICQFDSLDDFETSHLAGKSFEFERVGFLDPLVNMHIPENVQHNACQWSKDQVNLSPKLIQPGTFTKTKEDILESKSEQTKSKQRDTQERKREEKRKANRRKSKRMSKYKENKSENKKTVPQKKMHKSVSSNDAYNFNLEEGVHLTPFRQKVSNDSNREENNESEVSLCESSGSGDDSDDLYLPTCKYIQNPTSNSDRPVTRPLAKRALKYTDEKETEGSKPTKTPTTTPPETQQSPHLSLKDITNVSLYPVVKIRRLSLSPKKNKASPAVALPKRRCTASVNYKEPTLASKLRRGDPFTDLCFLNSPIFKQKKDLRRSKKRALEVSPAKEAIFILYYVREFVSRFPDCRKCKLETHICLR

What was measured:
Assay in all cases: log2 fold change, soluble protein after heating vs DMSO (PISA); higher = thermal stabilisation; K562 lysate, 10 uM; active = over 0.2 and 3.5 SD of the protein, either way, in both replicates (recomputed)
[1] = compound: CCCS(=O)(=O)Nc1ccc(F)c(C(=O)c2c[nH]c3ncc(-c4ccc(Cl)cc4)cc23)c1F [vemurafenib]
In short: (§1)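 Values give the log-two fold change in thermal stability against solvent controls, from duplicates. Crude K562 extract at 1 mg/mL protein, made by dounce homogenisation in PBS pH 7.4 with 1 mM MgCl2, was treated with 10 μM compound for 30 min. After 3 min heating across 48°C-58°C, aliquots were pooled, adjusted to 0.5% NP-40 at 4°C and centrifuged at 21,000xg for 90 min. The supernatant was measured by TMTpro 16plex LC-MS/MS with channel sums equalised.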

[2] = compound: CCCS(=O)(=O)Nc1ccc(F)c(C(=O)c2c[nH]c3ncc(Cl)cc23)c1F
In short: as §1

[3] = compound: CCN(CCCOc1ccc2c(Nc3cc(CC(=O)Nc4cccc(F)c4)[nH]n3)ncnc2c1)CCOP(=O)(O)O [barasertib]
In short: as §1

[4] = compound: CC[C@@H]1C(=O)N(C)c2cnc(Nc3ccc(C(=O)NC4CCN(C)CC4)cc3OC)nc2N1C1CCCC1
In short: as §1

[5] = compound: CC[C@@H]1C(=O)N(C)c2cnc(Nc3ccc(C(=O)N[C@H]4CC[C@H](N5CCN(CC6CC6)CC5)CC4)cc3OC)nc2N1C(C)C [volasertib]
In short: as §1

[6] = compound: CCn1c(C(=O)N(C2CC2)C2CC2)cc2c3c(ncn3C)c(Nc3cc(C)n(C)n3)nc21
In short: as §1

[7] = compound: CCn1cc(-c2ccnc3[nH]c(-c4cccc(CN(C)C)c4)cc23)c(-c2ccc(NC(=O)N(C)C)cc2)n1
In short: as §1

[8] = compound: CN1CCC(CNc2ccc3ncc(-c4cccc(OC(F)(F)F)c4)n3n2)CC1
In short: as §1

[9] = compound: CN1CCN(CCOc2cc(OC3CCOCC3)c3c(Nc4c(Cl)ccc5c4OCO5)ncnc3c2)CC1 [saracatinib]
In short: as §1

[10] = compound: CN1CCN(c2nc(C3=C(c4c[nH]c5ccccc45)C(=O)NC3=O)c3ccccc3n2)CC1 [sotrastaurin]
In short: as §1

[11] = compound: CN1CC[C@H](c2c(O)cc(O)c3c(=O)cc(-c4ccccc4Cl)oc23)[C@H](O)C1 [alvocidib]
In short: as §1

[12] = compound: CN1CCc2c(c3ccccc3n2Cc2ccc(C(=O)NO)cc2)C1 [Tubastatin A]
In short: as §1

[13] = compound: CNC(=O)C1=CC=CC=C1NC2=NC(=NC=C2Cl)NC3=C(C=C(C=C3)N4CCOCC4)OC
In short: as §1

[14] = compound: CNC(=O)c1ccc(Nc2ncc(C(F)(F)F)c(NCc3nccnc3N(C)S(C)(=O)=O)n2)cc1 [defactinib]
In short: as §1

[15] = compound: CNc1nc(-c2ccc3c(N)n[nH]c3c2)cc(N2C[C@@H](C(=O)NC3CCCCC3)CC[C@H]2C)n1
In short: as §1

[16] = compound: COC(=O)N[C@@H](C)CNc1nccc(-c2cn(C(C)C)nc2-c2cc(Cl)cc(NS(C)(=O)=O)c2F)n1 [encorafenib]
In short: as §1

[17] = compound: COC(=O)[C@H](CCSC)NC(=O)C1=C(C=C(C=C1)NC[C@H](CS)N)C2=CC=CC=C2
In short: as §1

[18] = compound: COc1cc(Nc2ncc3c(n2)-c2ccc(Cl)cc2C(c2c(F)cccc2OC)=NC3)ccc1C(=O)O [alisertib]
In short: as §1

[19] = compound: COc1cc2nc(-c3cc(F)ccc3O)nc(N[C@@H]3CNC[C@H]3C(C)(C)O)c2cc1OC
In short: as §1

[20] = compound: COc1cc2ncnc(Nc3ccc(F)c(Cl)c3)c2cc1OCCCN1CCOCC1 [gefitinib]
In short: as §1

Measured: log2 fold change

SERGEF (UniProt Q9UGK8)
inactive: [1] -0.107 | [2] 0.043 | [3] 0.035 | [4] -0.008 | [5] -0.061 | [6] 0.015 | [7] -0.045 | [8] -0.021 | [9] 0.041 | [10] -0.307 | [11] 0.009 | [12] -0.008 | [13] 0.065 | [14] -0.01 | [15] 0.05 | [16] -0.011 | [17] 0.015 | [18] -0.054 | [19] 0.015 | [20] 0.034

SIRT1 (UniProt Q96EB6)
inactive: [1] -0.001 | [2] 0.021 | [3] 0.027 | [4] -0.013 | [5] 0.004 | [6] 0.006 | [7] 0.077 | [8] -0.077 | [9] 0.016 | [10] 0.016 | [11] 0.02 | [12] 0.004 | [13] 0.013 | [14] 0.02 | [15] 0.035 | [16] -0.006 | [17] 0.043 | [18] 0.011 | [19] 0.009 | [20] 0.001

SERPINH1 (UniProt P50454)
inactive: [1] 0.023 | [2] -0.012 | [3] -0.019 | [4] 0.016 | [5] 0.008 | [6] -0.008 | [7] -0.078 | [8] 0.028 | [9] -0.017 | [10] 0 | [11] -0.014 | [12] 0.064 | [13] -0.019 | [14] -0.01 | [15] 0.033 | [16] -0.02 | [17] 0.009 | [18] 0.002 | [19] 0.026 | [20] -0.003

SHMT2 (UniProt P34897)
inactive: [1] -0.003 | [2] 0.024 | [3] -0.034 | [4] -0.045 | [5] 0.003 | [6] 0.012 | [7] -0.032 | [8] 0.037 | [9] -0.006 | [10] -0.038 | [11] 0.024 | [12] 0.026 | [13] 0.002 | [14] -0.008 | [15] 0.021 | [16] -0.025 | [17] -0.02 | [18] -0.002 | [19] 0.002 | [20] -0.011

SF1 isoform 5 (UniProt Q15637)
inactive: [1] -0.017 | [2] 0.018 | [3] -0.033 | [4] 0.044 | [5] 0.009 | [6] -0.006 | [7] -0.033 | [8] 0.055 | [9] 0.031 | [10] -0.1 | [11] -0.006 | [12] 0.033 | [13] 0.012 | [14] -0.023 | [15] 0.036 | [16] 0.024 | [17] -0.042 | [18] 0.019 | [19] -0.002 | [20] -0.017

SH3BP1 (UniProt Q9Y3L3)
inactive: [1] 0.082 | [2] 0.037 | [3] 0.035 | [4] -0.003 | [5] -0.018 | [6] -0.005 | [7] -0.04 | [8] 0.035 | [9] -0.007 | [10] -0.029 | [11] -0.039 | [12] 0.022 | [13] -0.019 | [14] 0.021 | [15] -0.011 | [16] 0.017 | [17] -0.005 | [18] -0.005 | [19] 0.01 | [20] -0.001

SH3GLB2 (UniProt Q9NR46)
inactive: [1] -0.056 | [2] 0.001 | [3] -0.017 | [4] 0.005 | [5] -0.03 | [6] 0.038 | [7] -0.007 | [8] -0.009 | [9] -0.021 | [10] -0.043 | [11] -0.008 | [12] -0.112 | [13] 0.01 | [14] 0.017 | [15] -0.059 | [16] 0.038 | [17] -0.066 | [18] 0.032 | [19] -0.039 | [20] 0.008

SF3B6 (UniProt Q9Y3B4)
inactive: [1] -0.006 | [2] -0.003 | [3] -0.026 | [4] 0.027 | [5] 0.014 | [6] -0.003 | [7] 0.061 | [8] -0.013 | [9] 0.028 | [10] 0.018 | [11] 0.05 | [12] -0.037 | [13] 0.016 | [14] 0.017 | [15] 0.071 | [16] 0.014 | [17] -0.003 | [18] -0.011 | [19] -0.027 | [20] -0.172

SGTB (UniProt Q96EQ0)
inactive: [1] 0.023 | [2] -0.001 | [3] 0.034 | [4] -0.021 | [5] 0.012 | [6] 0.04 | [7] 0.028 | [8] -0.047 | [9] -0.01 | [10] -0.013 | [11] 0.087 | [12] 0.028 | [13] 0 | [14] 0.026 | [15] -0.063 | [16] -0.016 | [17] -0.028 | [18] -0.006 | [19] -0.026 | [20] 0.011

Two records drawn at random from the list so far:
SF1 isoform 5 (UniProt Q15637)
inactive: [1] -0.017 | [2] 0.018 | [3] -0.033 | [4] 0.044 | [5] 0.009 | [6] -0.006 | [7] -0.033 | [8] 0.055 | [9] 0.031 | [10] -0.1 | [11] -0.006 | [12] 0.033 | [13] 0.012 | [14] -0.023 | [15] 0.036 | [16] 0.024 | [17] -0.042 | [18] 0.019 | [19] -0.002 | [20] -0.017

SGTB (UniProt Q96EQ0)
inactive: [1] 0.023 | [2] -0.001 | [3] 0.034 | [4] -0.021 | [5] 0.012 | [6] 0.04 | [7] 0.028 | [8] -0.047 | [9] -0.01 | [10] -0.013 | [11] 0.087 | [12] 0.028 | [13] 0 | [14] 0.026 | [15] -0.063 | [16] -0.016 | [17] -0.028 | [18] -0.006 | [19] -0.026 | [20] 0.011

(cont.)

SF3B2 (UniProt Q13435)
inactive: [1] 0.014 | [2] 0.007 | [3] -0.015 | [4] -0.003 | [5] 0.007 | [6] -0.002 | [7] -0.056 | [8] 0.019 | [9] 0.016 | [10] -0.013 | [11] -0.027 | [12] 0.001 | [13] -0.025 | [14] -0.041 | [15] 0.007 | [16] 0.009 | [17] 0.02 | [18] 0.023 | [19] 0.005 | [20] -0.008

SESN2 (UniProt P58004)
inactive: [1] -0.008 | [2] 0.025 | [3] 0.049 | [4] -0.103 | [5] -0.066 | [6] 0.019 | [7] 0.02 | [8] -0.105 | [9] -0.043 | [10] 0.047 | [11] 0.028 | [12] -0.093 | [13] -0.028 | [14] 0.039 | [15] 0.033 | [16] 0.038 | [17] -0.001 | [18] -0.026 | [19] -0.045 | [20] -0.034

SH3BP5L (UniProt Q7L8J4)
inactive: [1] 0.078 | [2] 0.02 | [3] -0.029 | [4] 0.011 | [5] 0.013 | [6] -0.011 | [7] -0.014 | [8] 0.072 | [9] 0.05 | [10] 0 | [11] -0.003 | [12] -0.012 | [13] 0.036 | [14] -0.003 | [15] -0.015 | [16] 0.058 | [17] -0.047 | [18] 0.021 | [19] 0.015 | [20] 0.001

SHCBP1 (UniProt Q8NEM2)
inactive: [1] -0.016 | [2] 0.003 | [3] 0.041 | [4] -0.041 | [5] -0.044 | [6] 0.027 | [7] -0.091 | [8] 0.022 | [9] 0.027 | [10] 0.019 | [11] 0.001 | [12] -0.122 | [13] -0.043 | [14] 0.012 | [15] -0.084 | [16] 0.049 | [17] -0.003 | [18] 0.088 | [19] -0.015 | [20] 0.055

SH2D2A isoform 2 (UniProt Q9NP31)
inactive: [1] -0.018 | [2] 0.079 | [3] -0.131 | [4] -0.04 | [5] -0.125 | [6] -0.064 | [7] -0.075 | [8] 0.034 | [9] 0.094 | [10] -0.004 | [11] -0.025 | [12] 0.016 | [13] 0.087 | [14] -0.019 | [15] 0.044 | [16] 0.001 | [17] 0.188 | [18] 0.102 | [19] 0.025 | [20] 0.104

SIN3A (UniProt Q96ST3)
inactive: [1] -0.005 | [2] 0.017 | [3] 0.031 | [4] 0.019 | [5] 0.011 | [6] -0.015 | [7] 0.014 | [8] -0.017 | [9] -0.005 | [10] 0.016 | [11] -0.006 | [12] -0.074 | [13] 0.004 | [14] 0.013 | [15] 0.013 | [16] 0.01 | [17] 0.062 | [18] 0.022 | [19] -0.001 | [20] 0.015

SGO1 (UniProt Q5FBB7)
inactive: [1] 0.024 | [2] 0.031 | [3] 0.011 | [4] 0.014 | [5] -0.016 | [6] -0.125 | [7] -0.087 | [8] 0.043 | [9] -0.045 | [10] 0.029 | [11] -0.011 | [12] -0.038 | [13] -0.053 | [14] -0.01 | [15] 0.017 | [16] -0.01 | [17] -0.019 | [18] 0.116 | [19] -0.014 | [20] 0.01
